Results deposited as PubChem BioAssay AID1224826 (NIAID, 2016)

Assay: 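Regulators of Tlr4 signalling leading to Tnf-alpha expression in macrophages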 (primary screen)
Cells: RAW264.7 G9 macrophages from mouse bearing reporters for p65 (GFP) and the Tnf promoter (mCherry)
Reagents: siRNA pool against mouse genes, 100 nM
Time to read-out: 16 h of LPS stimulation, after 2 days of siRNA transfection
Challenge: bacterial lipopolysaccharide (Salmonella minnesota R595), 10 ng/ml
Detection: 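Nuclear mCherry signal of the Tnf promoter reporter measured by imaging after background removal, scaled to each plate median and turned into robust z-scores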
Reading the numbers: Tnf reporter robust z-score: higher = stronger Tnf promoter reporter signal after LPS; Tnf reporter intensity: higher = stronger Tnf promoter reporter signal
Call rule: 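Called active when robust z-score is at most -1.3, matching the median of the Tlr4 knock-down control, or over 3; control wells and wells with under 50 cells never active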
Meaning of the calls: active = Tnf reporter clearly lowered or raised; inactive = no clear change in Tnf reporter
Here is a random part of about 17,000 reagents tested. About 1,110 of all reagents (6.6%) count as active. 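Active means lowered or raised reporter signal; replicate intensities are raw and not normalised per plate.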 A number with no mark means an inactive call. The numbers tell different reagents against one gene apart. A reagent listed more than once was tested more than once; the source does not tell the runs apart.

gene knocked down | reagent | Tnf reporter robust z-score | fewer than 50 cells in well | Tnf reporter intensity, replicate 1 | Tnf reporter intensity, replicate 2
Brd8dc | 1 | – | fewer than 50 cells per well; well left out of calls | 260 | 68.5
Kirrel2 | 1 | 2 | enough cells in well | 283 | 246
Slc39a3 | 1 | – | fewer than 50 cells per well; well left out of calls | 49 | 53.3
Akt1 | 1 | 1.01 | enough cells in well | 263 | 148
Akt1 | 1 | 0.2 | enough cells in well | 203 | 362
Ccdc125 | 1 | – | fewer than 50 cells per well; well left out of calls | 178 | 163
Otub1 | 1 | 0.6 | enough cells in well | 335 | 183
Ogdh | 1 | -0.22 | enough cells in well | 226 | 166
Or52e7 | 1 | -0.21 | enough cells in well | 92.4 | 108
Gab3 | 1 | 0.65 | enough cells in well | 330 | 271
Sfswap | 1 | 1.02 | enough cells in well | 334 | 323
Krt86 | 1 | -0.29 | enough cells in well | 229 | 126
Ndrg4 | 1 | -1.12 | enough cells in well | 176 | 118
Ccdc85b | 1 | 0.89 | enough cells in well | 176 | 250
Atp6v0a4 | 1 | 0 | enough cells in well | 160 | 141
Prg3 | 1 | -0.08 | enough cells in well | 229 | 195
Rbm6 | 1 | -0.14 | enough cells in well | 345 | 162
Myt1 | 1 | -0.89 | enough cells in well | 169 | 156
4931414P19Rik | 1 | – | fewer than 50 cells per well; well left out of calls | 155 | 82.2
Fhl2 | 1 | 0.53 | enough cells in well | 278 | 170
Usp11 | 1 | -0.35 | enough cells in well | 186 | 223
Prkacb | 1 | 0.53 | enough cells in well | 225 | 101
Chmp1b2 | 1 | – | fewer than 50 cells per well; well left out of calls | 273 | 90.3
Gmeb1 | 1 | -0.47 | enough cells in well | 189 | 169
Cacnb2 | 1 | -0.61 | enough cells in well | 136 | 133
Serf2 | 1 | – | fewer than 50 cells per well; well left out of calls | 109 | 87.5
Ankrd23 | 1 | 0.24 | enough cells in well | 236 | 190
Or5w15 | 1 | -0.92 | enough cells in well | 126 | 106
Zfp715 | 1 | 1.48 | enough cells in well | 339 | 116
Fpr3 | 1 | 0.55 | enough cells in well | 241 | 376
Fpr3 | 2 | -0.41 | enough cells in well | 170 | 282
Grid1 | 1 | -1.43 (active) | enough cells in well | 142 | 74.8
Avpi1 | 1 | 0.67 | enough cells in well | 228 | 184
Or7e173 | 1 | – | fewer than 50 cells per well; well left out of calls | 65.7 | 66
Stk10 | 1 | – | fewer than 50 cells per well; well left out of calls | 167 | 75.7
Derl3 | 1 | – | fewer than 50 cells per well; well left out of calls | 242 | 75.8
Cemip | 1 | -1.59 (active) | enough cells in well | 109 | 61.3
Creb3 | 1 | -0.09 | enough cells in well | 220 | 204
Wdr86 | 1 | 0.13 | enough cells in well | 292 | 63.6
Tmem37 | 1 | 0.26 | enough cells in well | 155 | 126
V1rg10 | 1 | 2.69 | enough cells in well | 220 | 176
Eif2s1 | 1 | -0.33 | enough cells in well | 146 | 116
Dhx57 | 1 | 0.37 | enough cells in well | 181 | 196
Epb42 | 1 | 1.06 | enough cells in well | 302 | 323
Tspan3 | 1 | -0.22 | enough cells in well | 109 | 52.2
Spns1 | 1 | – | fewer than 50 cells per well; well left out of calls | 184 | 27.8
Wif1 | 1 | – | fewer than 50 cells per well; well left out of calls | 137 | 153
Rybp | 1 | -0.41 | enough cells in well | 273 | 173
Casp2 | 1 | -0.68 | enough cells in well | 112 | 125
Cdc73 | 1 | -0.79 | enough cells in well | 109 | 115
Myo18a | 1 | -0.72 | enough cells in well | 177 | 77.6
Tmem169 | 1 | 0.82 | enough cells in well | 188 | 228
Cts6 | 1 | -0.11 | enough cells in well | 139 | 210
Pde1c | 1 | 0.05 | enough cells in well | 261 | 173
Gnai2 | 1 | -0.41 | enough cells in well | 204 | 162
Chfr | 1 | 0.98 | enough cells in well | 318 | 286
Ctsc | 1 | 1.15 | enough cells in well | 356 | 253
Ap3b1 | 1 | -0.98 | enough cells in well | 122 | 103

9 entries from above, reformatted.
{"gene knocked down": "Sfswap", "reagent": 1, "Tnf reporter robust z-score": 1.02, "fewer than 50 cells in well": "enough cells in well", "Tnf reporter intensity, replicate 1": 334, "Tnf reporter intensity, replicate 2": 323}
{"gene knocked down": "Krt86", "reagent": 1, "Tnf reporter robust z-score": -0.29, "fewer than 50 cells in well": "enough cells in well", "Tnf reporter intensity, replicate 1": 229, "Tnf reporter intensity, replicate 2": 126}
{"gene knocked down": "Ndrg4", "reagent": 1, "Tnf reporter robust z-score": -1.12, "fewer than 50 cells in well": "enough cells in well", "Tnf reporter intensity, replicate 1": 176, "Tnf reporter intensity, replicate 2": 118}
{"gene knocked down": "Ccdc85b", "reagent": 1, "Tnf reporter robust z-score": 0.89, "fewer than 50 cells in well": "enough cells in well", "Tnf reporter intensity, replicate 1": 176, "Tnf reporter intensity, replicate 2": 250}
{"gene knocked down": "Atp6v0a4", "reagent": 1, "Tnf reporter robust z-score": 0, "fewer than 50 cells in well": "enough cells in well", "Tnf reporter intensity, replicate 1": 160, "Tnf reporter intensity, replicate 2": 141}
{"gene knocked down": "Prg3", "reagent": 1, "Tnf reporter robust z-score": -0.08, "fewer than 50 cells in well": "enough cells in well", "Tnf reporter intensity, replicate 1": 229, "Tnf reporter intensity, replicate 2": 195}
{"gene knocked down": "Rbm6", "reagent": 1, "Tnf reporter robust z-score": -0.14, "fewer than 50 cells in well": "enough cells in well", "Tnf reporter intensity, replicate 1": 345, "Tnf reporter intensity, replicate 2": 162}
{"gene knocked down": "Myt1", "reagent": 1, "Tnf reporter robust z-score": -0.89, "fewer than 50 cells in well": "enough cells in well", "Tnf reporter intensity, replicate 1": 169, "Tnf reporter intensity, replicate 2": 156}
{"gene knocked down": "4931414P19Rik", "reagent": 1, "fewer than 50 cells in well": "fewer than 50 cells per well; well left out of calls", "Tnf reporter intensity, replicate 1": 155, "Tnf reporter intensity, replicate 2": 82.2}
